The values that follow come from the supplement of paper PMC12823440, “Inhibitors supercharge kinase turnover through native proteolytic circuits” (Nature, 2025).

Protein sequences, listed by entry. Tags and fused reporters are not part of them. Lines headed by an entry give the natural chain unless they say otherwise; changes in a name come on top.
UniProt Q01974, whole entry: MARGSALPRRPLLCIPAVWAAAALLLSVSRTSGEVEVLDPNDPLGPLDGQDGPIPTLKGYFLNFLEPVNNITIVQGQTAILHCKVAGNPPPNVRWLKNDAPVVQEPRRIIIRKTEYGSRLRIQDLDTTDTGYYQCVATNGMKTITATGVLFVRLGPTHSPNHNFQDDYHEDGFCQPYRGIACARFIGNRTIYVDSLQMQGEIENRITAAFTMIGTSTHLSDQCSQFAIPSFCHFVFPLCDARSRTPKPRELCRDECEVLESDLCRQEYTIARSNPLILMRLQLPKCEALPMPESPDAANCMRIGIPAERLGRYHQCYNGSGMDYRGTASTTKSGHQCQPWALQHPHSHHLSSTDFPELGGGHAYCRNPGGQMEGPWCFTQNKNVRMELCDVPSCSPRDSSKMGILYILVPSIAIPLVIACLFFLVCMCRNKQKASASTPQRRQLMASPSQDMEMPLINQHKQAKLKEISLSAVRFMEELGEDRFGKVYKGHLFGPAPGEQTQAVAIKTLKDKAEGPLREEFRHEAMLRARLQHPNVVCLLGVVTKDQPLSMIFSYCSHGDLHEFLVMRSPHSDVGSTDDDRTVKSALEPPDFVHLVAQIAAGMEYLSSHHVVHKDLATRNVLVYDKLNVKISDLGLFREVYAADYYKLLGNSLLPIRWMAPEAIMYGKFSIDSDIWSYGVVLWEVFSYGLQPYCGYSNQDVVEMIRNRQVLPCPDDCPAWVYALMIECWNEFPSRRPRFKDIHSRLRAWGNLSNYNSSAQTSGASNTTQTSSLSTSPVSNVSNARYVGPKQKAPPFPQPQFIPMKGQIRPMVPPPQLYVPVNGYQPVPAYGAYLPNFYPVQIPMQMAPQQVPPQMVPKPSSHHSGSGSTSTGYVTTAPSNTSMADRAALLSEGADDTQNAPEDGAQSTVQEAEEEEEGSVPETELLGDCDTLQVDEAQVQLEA
UniProt Q15418, whole entry: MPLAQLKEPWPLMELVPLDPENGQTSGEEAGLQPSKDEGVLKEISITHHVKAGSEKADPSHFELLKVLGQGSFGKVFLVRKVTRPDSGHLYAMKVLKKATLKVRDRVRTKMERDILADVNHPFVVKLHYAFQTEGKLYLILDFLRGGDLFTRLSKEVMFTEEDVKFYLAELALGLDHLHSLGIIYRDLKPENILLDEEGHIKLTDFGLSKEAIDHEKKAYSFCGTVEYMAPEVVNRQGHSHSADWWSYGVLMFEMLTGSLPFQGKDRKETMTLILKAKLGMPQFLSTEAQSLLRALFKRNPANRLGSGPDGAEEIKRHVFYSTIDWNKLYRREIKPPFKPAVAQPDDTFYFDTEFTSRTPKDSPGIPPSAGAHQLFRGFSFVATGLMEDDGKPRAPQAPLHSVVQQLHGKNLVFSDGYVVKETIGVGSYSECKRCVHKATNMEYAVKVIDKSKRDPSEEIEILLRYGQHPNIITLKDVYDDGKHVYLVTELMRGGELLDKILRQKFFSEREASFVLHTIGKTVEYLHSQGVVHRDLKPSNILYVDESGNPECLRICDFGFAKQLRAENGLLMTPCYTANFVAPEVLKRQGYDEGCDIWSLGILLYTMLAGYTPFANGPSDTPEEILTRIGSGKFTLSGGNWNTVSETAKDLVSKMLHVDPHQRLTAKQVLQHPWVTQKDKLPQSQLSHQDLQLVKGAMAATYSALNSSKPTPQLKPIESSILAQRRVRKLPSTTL
UniProt Q9NYA1, whole entry: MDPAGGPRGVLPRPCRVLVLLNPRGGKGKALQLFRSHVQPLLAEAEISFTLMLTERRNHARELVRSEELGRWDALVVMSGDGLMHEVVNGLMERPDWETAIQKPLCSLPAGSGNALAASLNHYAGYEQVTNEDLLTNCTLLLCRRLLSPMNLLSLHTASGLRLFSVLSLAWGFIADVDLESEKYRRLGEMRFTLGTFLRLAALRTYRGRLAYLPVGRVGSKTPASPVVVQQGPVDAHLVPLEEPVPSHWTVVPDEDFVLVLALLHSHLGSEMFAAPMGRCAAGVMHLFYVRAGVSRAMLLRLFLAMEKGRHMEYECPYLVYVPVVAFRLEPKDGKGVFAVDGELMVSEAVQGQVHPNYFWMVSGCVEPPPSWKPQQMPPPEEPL
UniProt Q9Y6E0: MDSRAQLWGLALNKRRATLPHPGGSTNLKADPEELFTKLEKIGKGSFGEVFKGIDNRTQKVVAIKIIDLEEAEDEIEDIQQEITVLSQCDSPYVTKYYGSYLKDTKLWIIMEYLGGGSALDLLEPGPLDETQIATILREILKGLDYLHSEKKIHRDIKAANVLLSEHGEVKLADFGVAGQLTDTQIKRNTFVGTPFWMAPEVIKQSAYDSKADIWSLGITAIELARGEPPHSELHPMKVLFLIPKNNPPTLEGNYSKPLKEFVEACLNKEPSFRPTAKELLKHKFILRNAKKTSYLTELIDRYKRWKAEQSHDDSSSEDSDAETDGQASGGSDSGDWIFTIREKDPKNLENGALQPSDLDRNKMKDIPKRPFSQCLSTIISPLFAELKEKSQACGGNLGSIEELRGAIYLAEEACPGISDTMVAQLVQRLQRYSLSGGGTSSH
UniProt P42680: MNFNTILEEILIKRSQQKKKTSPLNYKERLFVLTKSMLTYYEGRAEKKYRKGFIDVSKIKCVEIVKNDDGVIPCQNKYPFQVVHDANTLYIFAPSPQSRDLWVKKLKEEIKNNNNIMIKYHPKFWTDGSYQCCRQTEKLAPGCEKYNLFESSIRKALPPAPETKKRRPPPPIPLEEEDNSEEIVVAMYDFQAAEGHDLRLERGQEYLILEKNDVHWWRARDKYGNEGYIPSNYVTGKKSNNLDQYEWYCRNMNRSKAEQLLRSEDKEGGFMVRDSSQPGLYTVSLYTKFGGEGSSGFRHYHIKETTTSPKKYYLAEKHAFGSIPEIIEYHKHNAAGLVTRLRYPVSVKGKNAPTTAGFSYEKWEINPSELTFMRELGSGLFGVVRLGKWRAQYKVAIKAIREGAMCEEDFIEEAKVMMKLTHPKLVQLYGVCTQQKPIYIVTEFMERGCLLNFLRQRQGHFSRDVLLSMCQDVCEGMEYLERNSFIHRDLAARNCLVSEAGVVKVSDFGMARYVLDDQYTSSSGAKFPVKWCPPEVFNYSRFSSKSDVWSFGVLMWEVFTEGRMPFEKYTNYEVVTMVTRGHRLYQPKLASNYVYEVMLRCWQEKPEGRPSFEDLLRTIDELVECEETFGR
UniProt P29597: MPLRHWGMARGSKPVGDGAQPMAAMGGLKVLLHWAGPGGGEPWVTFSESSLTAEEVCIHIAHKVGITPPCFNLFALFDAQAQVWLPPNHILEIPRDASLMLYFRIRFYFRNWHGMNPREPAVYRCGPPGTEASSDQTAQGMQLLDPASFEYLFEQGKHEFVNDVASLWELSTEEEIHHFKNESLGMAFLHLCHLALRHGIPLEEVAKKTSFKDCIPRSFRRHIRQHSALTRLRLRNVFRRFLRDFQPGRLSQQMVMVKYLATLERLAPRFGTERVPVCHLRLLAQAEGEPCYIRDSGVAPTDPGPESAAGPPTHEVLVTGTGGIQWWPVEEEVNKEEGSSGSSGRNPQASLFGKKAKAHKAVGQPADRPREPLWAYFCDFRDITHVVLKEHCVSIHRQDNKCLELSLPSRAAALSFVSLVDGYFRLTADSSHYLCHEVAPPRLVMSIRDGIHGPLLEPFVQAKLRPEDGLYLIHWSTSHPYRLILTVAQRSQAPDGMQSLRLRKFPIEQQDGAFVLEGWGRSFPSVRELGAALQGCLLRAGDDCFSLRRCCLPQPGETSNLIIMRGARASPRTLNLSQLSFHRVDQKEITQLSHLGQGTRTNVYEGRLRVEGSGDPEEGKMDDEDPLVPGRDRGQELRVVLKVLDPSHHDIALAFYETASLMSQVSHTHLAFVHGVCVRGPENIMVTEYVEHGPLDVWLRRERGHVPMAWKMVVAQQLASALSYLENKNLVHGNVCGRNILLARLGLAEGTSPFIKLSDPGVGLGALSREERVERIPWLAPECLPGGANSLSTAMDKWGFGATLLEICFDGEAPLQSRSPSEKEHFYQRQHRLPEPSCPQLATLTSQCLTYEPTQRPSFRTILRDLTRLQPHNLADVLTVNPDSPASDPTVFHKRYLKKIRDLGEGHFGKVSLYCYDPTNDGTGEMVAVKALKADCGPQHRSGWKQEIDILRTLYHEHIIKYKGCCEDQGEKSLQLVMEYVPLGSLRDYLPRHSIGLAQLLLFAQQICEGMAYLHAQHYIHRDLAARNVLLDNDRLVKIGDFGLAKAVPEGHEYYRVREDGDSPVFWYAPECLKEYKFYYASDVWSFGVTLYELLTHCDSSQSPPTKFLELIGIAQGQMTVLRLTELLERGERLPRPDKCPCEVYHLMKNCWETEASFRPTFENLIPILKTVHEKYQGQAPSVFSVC
UniProt P07947, whole entry, looked up: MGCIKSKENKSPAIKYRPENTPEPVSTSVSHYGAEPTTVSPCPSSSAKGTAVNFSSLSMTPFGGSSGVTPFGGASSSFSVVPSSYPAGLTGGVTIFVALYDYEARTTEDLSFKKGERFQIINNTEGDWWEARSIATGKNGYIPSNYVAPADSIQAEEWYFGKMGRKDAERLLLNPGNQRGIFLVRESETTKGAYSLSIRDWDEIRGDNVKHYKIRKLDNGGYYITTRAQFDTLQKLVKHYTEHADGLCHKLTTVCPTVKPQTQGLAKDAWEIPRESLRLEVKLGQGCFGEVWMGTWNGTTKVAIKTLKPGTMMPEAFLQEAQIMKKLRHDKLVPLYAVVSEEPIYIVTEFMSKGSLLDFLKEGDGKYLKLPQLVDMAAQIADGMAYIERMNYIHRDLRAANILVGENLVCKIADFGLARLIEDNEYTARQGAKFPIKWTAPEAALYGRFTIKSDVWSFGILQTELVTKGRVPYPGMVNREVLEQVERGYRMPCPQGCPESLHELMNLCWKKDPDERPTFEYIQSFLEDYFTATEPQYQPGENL
UniProt P43403: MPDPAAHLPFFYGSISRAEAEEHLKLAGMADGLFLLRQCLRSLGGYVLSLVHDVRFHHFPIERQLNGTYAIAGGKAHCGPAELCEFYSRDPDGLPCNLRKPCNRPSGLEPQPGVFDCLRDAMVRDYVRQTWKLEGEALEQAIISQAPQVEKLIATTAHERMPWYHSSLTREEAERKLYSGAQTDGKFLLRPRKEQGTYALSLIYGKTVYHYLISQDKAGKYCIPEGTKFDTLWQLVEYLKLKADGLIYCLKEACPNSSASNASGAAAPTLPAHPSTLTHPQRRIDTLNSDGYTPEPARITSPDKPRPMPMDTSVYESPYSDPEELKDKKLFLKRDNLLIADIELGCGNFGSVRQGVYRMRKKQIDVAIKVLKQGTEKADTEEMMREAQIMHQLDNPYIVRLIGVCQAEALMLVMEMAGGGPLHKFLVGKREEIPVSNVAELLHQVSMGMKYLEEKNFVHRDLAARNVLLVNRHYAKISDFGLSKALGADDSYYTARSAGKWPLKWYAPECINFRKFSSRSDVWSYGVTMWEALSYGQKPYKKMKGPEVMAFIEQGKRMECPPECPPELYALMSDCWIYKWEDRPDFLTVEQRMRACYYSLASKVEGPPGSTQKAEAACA
UniProt P11802: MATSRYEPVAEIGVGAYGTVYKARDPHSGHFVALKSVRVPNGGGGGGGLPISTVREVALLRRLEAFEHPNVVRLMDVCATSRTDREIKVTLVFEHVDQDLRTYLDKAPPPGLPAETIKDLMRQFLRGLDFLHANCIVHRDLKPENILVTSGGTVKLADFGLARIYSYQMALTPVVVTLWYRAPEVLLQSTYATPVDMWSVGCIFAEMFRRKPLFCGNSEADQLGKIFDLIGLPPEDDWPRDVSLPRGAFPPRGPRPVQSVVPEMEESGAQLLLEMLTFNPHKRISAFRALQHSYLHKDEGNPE
UniProt P50613: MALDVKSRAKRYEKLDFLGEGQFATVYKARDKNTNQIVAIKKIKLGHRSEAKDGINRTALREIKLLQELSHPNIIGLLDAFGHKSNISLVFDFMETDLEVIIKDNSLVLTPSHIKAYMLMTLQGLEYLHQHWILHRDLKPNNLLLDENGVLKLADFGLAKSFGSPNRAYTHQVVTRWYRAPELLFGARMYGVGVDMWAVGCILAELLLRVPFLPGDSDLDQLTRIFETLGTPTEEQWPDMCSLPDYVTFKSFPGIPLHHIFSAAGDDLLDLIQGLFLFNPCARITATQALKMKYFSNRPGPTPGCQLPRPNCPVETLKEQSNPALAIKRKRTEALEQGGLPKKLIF
UniProt P50750, whole entry: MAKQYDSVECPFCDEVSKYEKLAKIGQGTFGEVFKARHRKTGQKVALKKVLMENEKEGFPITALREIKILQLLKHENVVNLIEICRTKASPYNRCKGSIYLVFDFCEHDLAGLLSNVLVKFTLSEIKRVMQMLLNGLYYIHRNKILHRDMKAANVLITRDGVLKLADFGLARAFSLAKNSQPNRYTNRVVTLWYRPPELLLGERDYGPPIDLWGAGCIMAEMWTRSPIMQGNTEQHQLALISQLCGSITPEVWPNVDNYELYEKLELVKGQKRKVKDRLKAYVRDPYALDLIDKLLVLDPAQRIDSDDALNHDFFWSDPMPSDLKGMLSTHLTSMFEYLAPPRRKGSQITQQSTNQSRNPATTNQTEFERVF

Settings in all cases: K562; 2-18 h
One assay concerns the target ROR2 (UniProt Q01974). Nature of the assay: number of time points (of 5) at which kinase-Nluc abundance scored as decreased, DMSO-normalised (count); higher = more persistent destabilization.
For a further assay, the target named is RPS6KA1 (UniProt Q15418). Described as above.
The next assay addresses SPHK1 (UniProt Q9NYA1). Described as above.
The target in a further assay is SRC (UniProt P12931). Described as above.
The target in a further assay is STK24 (UniProt Q9Y6E0). The assay is described as above.
A further assay deals with STK38 (UniProt Q15208). Described as above.
Another assay addresses SYK (UniProt P43405). Described as above.
In the next assay the target is TEC (UniProt P42680). The description is as above.
For another assay, the target named is TYK2 (UniProt P29597). The assay is described as above.
The next assay concerns the target ULK3 (UniProt Q6PHR2). The assay is described as above.
The target in the next assay is YES1 (UniProt P07947). The assay is described as above.
The target of a further assay is ZAK (UniProt Q9NYL2). The description is as above.
The next assay addresses ZAP70 (UniProt P43403). The assay is described as above.
The next assay deals with CDK4 (UniProt P11802). Put plainly: number of time points (of 4; 2 h point missing) at which kinase-Nluc abundance scored as decreased, DMSO-normalised (count); higher = more persistent destabilization.
The target of a further assay is CDK7 (UniProt P50613). Described as above.
For a further assay, the target named is CDK9 (UniProt P50750). The description is as above.

Some of the results follow. Hit calls seldom repeat between salt and free forms of one compound.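 In K562 cells expressing nanoluciferase-fused kinases, luminescence was recorded at 4 h intervals between 2 and 18 h, normalized as percent of control with DMSO at 100% and a positive control at 0%. A significant (2 sigma) signal drop marks a time point as decreased. The authors' rule for a hit is not shown and takes in more than the number of time points.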

For the compound `CC1CCc2c(cc(Br)c(F)c2Br)N1C=O` (centres undefined) (10 µM), the “number of time points” value with ROR2, with RPS6KA1, in the assay with SPHK1, with SRC, with STK24 and in the assay with STK38 was 0 in each case. The “number of time points” value with SYK, with TEC, in the assay with TYK2, in the assay with ULK3, with YES1 and with ZAK was 0 in each case. Also, the “number of time points” value with ZAP70, with CDK4, with CDK7 and with CDK9 was 0 in each case.

`C=CC(=O)Nc1ccc(CN2C(=O)N(c3cc(OC)cc(OC)c3)Cc3cnc(Nc4ccc(N5CCN(C)CC5)cc4)nc32)cc1` (2.5 µM): the “number of time points” value with ROR2 is 0; with RPS6KA1 it was 0; with SPHK1, 3; with SRC, 0; with STK24, 0; with STK38, 0. In addition, the “number of time points” value with SYK, with TEC, with TYK2, in the assay with ULK3, in the assay with YES1 and with ZAK was 0 each time. In addition, the “number of time points” value with ZAP70, with CDK4, with CDK7 and in the assay with CDK9 was 0 in each case.

For `CN1CCN(c2cnc3c(C4CCN(C(=O)c5ccc(OC(F)(F)F)cc5N)CC4)ncnc3c2)CC1` (10 µM), the “number of time points” value with ROR2, with RPS6KA1, with SPHK1, with SRC, with STK24 and with STK38 was 0 each time. Also, the “number of time points” value in the assay with SYK, with TEC, with TYK2, in the assay with ULK3, in the assay with YES1 and with ZAK was 0 throughout. Further, the “number of time points” value with ZAP70, with CDK4, with CDK7 and with CDK9 was 0 throughout.

As to `Cc1cc(Nc2ncnc3ccc(NC4=NC(C)(C)CO4)cc23)ccc1Oc1ccn2ncnc2c1` [Tucatinib (hemiethanolate)] (2.5 µM), the “number of time points” value with ROR2, with RPS6KA1, with SPHK1, with SRC, in the assay with STK24 and with STK38 was 0 throughout. Further, the “number of time points” value with SYK, with TEC, with TYK2, in the assay with ULK3, in the assay with YES1 and in the assay with ZAK was 0 throughout. The “number of time points” value with ZAP70, with CDK4, with CDK7 and with CDK9 was 0 throughout.

Take `O=Nc1c(-c2c(O)[nH]c3ccc(F)cc23)[nH]c2ccccc12` [5'-Fluoroindirubinoxime] (10 µM): the “number of time points” value with ROR2, in the assay with RPS6KA1, with SPHK1, with SRC, with STK24 and with STK38 was 0 in each case. Also, the “number of time points” value with SYK, with TEC, with TYK2, with ULK3, with YES1 and with ZAK was 0 throughout. Besides, the “number of time points” value with ZAP70, with CDK4, in the assay with CDK7 and with CDK9 was 0 in each case.

With `C[C@@H]1CC[C@@H](Nc2nc(NC(C)(C)C)ncc2C(N)=O)C[C@H]1O` (10 µM), the “number of time points” value with ROR2, with RPS6KA1, with SPHK1, in the assay with SRC, with STK24 and in the assay with STK38 was 0 each time. Besides, the “number of time points” value with SYK, with TEC, with TYK2, with ULK3, with YES1 and with ZAK was 0 throughout. For the same compound, the “number of time points” value in the assay with ZAP70, with CDK4, with CDK7 and with CDK9 was 0 in each case.

As to `NS(=O)(=O)c1ccc(-n2nc(C(F)(F)F)cc2-c2ccc(Cl)cc2)cc1` (10 µM), the “number of time points” value with ROR2, in the assay with RPS6KA1, with SPHK1, with SRC, with STK24 and with STK38 was 0 throughout. Also, the “number of time points” value with SYK, with TEC, with TYK2, in the assay with ULK3, with YES1 and with ZAK was 0 in each case. Moreover, the “number of time points” value in the assay with ZAP70, with CDK4, with CDK7 and with CDK9 was 0 throughout.

`C=CC(=O)Nc1cccc(Nc2nc(Nc3ccc(N4CCN(C(C)=O)CC4)cc3OC)ncc2C(F)(F)F)c1` [Rociletinib] (10 µM): the “number of time points” value with ROR2, with RPS6KA1, with SPHK1, with SRC, with STK24 and with STK38 was 0 each time. Besides, the “number of time points” value with SYK, with TEC, with TYK2, in the assay with ULK3, with YES1 and in the assay with ZAK was 0 throughout. Also, the “number of time points” value with ZAP70, with CDK4, with CDK7 and with CDK9 was 0 in each case.

On to `CN(C)C(=O)Cn1cc(-c2ccc(-c3cncc4ccccc34)cc2)cn1` (10 µM), for which the “number of time points” value with ROR2, in the assay with RPS6KA1, with SPHK1, with SRC, in the assay with STK24 and with STK38 was 0 in each case. The “number of time points” value with SYK, with TEC, with TYK2, with ULK3, with YES1 and with ZAK was 0 throughout. For the same compound, the “number of time points” value with ZAP70, in the assay with CDK4, in the assay with CDK7 and with CDK9 was 0 throughout.
